Experimental data reported in patent publication US4734399A, “Growth hormone releasing factor analogs” (Hoffmann-La Roche Inc., priority 1986, dated 1988).
At least one peptide structure holds a part that was inferred or is arguable (an end, a ring closure or a residue). No end group written: not given here.

System: rat pituitary cells
Test: Stimulation of growth hormone production in rat pituitary cells in tissue culture (RIA for rat growth hormone)
Type: cell-based
Conditions: Exp. #GB 83; rat anterior pituitary cells, 4 hours of incubation, 0.8 to 200 fmol per ml, GH by RIA
Description: The assay for biological activity, which is based on the ability to stimulate production of growth hormone in rat pituitary cells in tissue culture, was performed as discribed in Example 2.
Pituitaries from 30-40 male Sprague-Dawley rats (175 g) were removed aseptically after decapitation. The anterior lobes were collected, washed 3 times in sterile Hepes buffer (0.025M) (pH 7.35) and dispersed at 37° C. in 20-30 ml Hepes buffer (pH 7.35) containing collagenase (4 mg per ml) and Dispase (Protease grade II, 2 mg per ml). After gentle 100-110 min vortexing and trituration by Pasteur pipette, the dispersed cells were separated by centrifugation (150×g, 4 min) and re-suspended in Hepes buffer containing neuraminidase ([…]), and 200 µg/ml ethylenediaminetetraacetic acid (EDTA) disodium salt, pH 7.35, for 10 min.
The cells were washed twice with plating medium and plated on multiwell-plates (1.5×10^5 cells per ml) using the following defined medium: F-12/DMEM/BGJ (6:3:1) (Gibco: 430-1700/430-1600/320-2591) with 2 g BSA/l., 2.38 g Hepes/1.50 mg PSN antibiotic mixture (Gibco Laboratories), 10 mg/l transferrin (Sigma T2252) with 1.83 g NaHCO3 /l (Baker 3506). The medium in each well was supplemented either with a sample of the novel GRF peptide or natural GRF(1-44)-NH2 at concentrations ranging from 0.8 to 200 fmol per ml of medium. Control wells contained no supplement. […]

Sequence: YADAIFTNSYRKVLAQLSARKLLQDILNRQQG [[Ala^15,Leu^27,Asn^28]--GRF(1-32)-OH, [Ala^15,Leu^27,Asn^28]-GRF(1-32)-OH]
- Potency Relative to GRF(1-44)-NH2: 2.2
